Data source: PubChem BioAssay AID504793 (Drosophila RNAi Screening Center, 2011)

Test: 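Whole-genome screen for parts of the DNA damage checkpoint at G2/M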 (primary screen)
Cell system: Drosophila S2R+ cells
Knock-down reagent: long dsRNA against Drosophila genes, about 0.25 µg dsRNA per well
Timing: 4 days of dsRNA, then 4 hours of drug before read-out
Challenge: doxorubicin 0.5 µM for 4 hours to cause double-strand breaks, in cells also given a low, harmless dose of dsRNA against nbs to sensitise the assay
Measurement: 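Per-well count of mitotic cells stained for phospho-histone H3 after doxorubicin exposure, used as mitotic index; counts are raw and not normalised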
Reading the numbers: mitotic cells: higher = more cells in mitosis, weaker G2 arrest
Hit rule: 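Genes are called active only when high mitotic counts were reproduced with independent dsRNAs and mitosis was checked for delay without damage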
Meaning of the calls: active = confirmed in follow-up tests; inactive = not confirmed
In all, the deposit lists about 23,000 reagents; shown is an unselected part of those with a known target gene and a result. Of all reagents, 62 (0.27%) are marked active. 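Calls come from follow-up tests whose scores are not deposited, so confirmed genes may have low counts here; counts are not normalised per plate.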 The raw values are shown without normalisation. Names joined by + are all predicted targets of the reagent.

| gene | amplicon | mitotic cells, replicate 1 | mitotic cells, replicate 2 | call |
| --- | --- | --- | --- | --- |
| CG13250 | DRSC11698 | 1 | – | inactive |
| CG13250 | DRSC27753 | 5 | – | inactive |
| Act42A | DRSC04835 | 7 | – | inactive |
| Act42A | DRSC25061 | 7 | – | inactive |
| CG3618 | DRSC11746 | 4 | – | inactive |
| FRG1 | DRSC10648 | 1 | – | inactive |
| CG17404 | DRSC15234 | 5 | 15 | inactive |
| CG31709 | DRSC01081 | 16 | – | inactive |
| CG31709 | DRSC27731 | 2 | – | inactive |
| Cpr | DRSC03293 | 3 | – | inactive |
| Cpr | DRSC28411 | 3 | – | inactive |
| Ir52c | DRSC21801 | 8 | – | inactive |
| Ir52c | DRSC27570 | 6 | – | inactive |
| CG15435 | DRSC00450 | 2 | – | inactive |
| CG15435 | DRSC27701 | 6 | – | inactive |
| Slmap | DRSC03799 | 3 | – | inactive |
| CG3285 | DRSC00589 | 3 | – | inactive |
| Pten | DRSC03402 | 8 | – | inactive |
| Pten | DRSC29950 | 10 | – | inactive |
| Trax | DRSC15709 | 7 | – | inactive |
| Uhg2 + snoRNA:Me18S-G1620 + snoRNA:U14:30Ea | DRSC01100 | 5 | – | inactive |
| CG34417 | DRSC18332 | 5 | – | inactive |
| CG34417 | DRSC18333 | 2 | – | inactive |
| CG34417 | DRSC28478 | 8 | – | inactive |
| Adgf-E | DRSC05973 | 10 | – | inactive |
| Adgf-E | DRSC27287 | 9 | – | inactive |
| CG8507 | DRSC16435 | 1 | – | inactive |
| CG5493 + CG5327 | DRSC06938 | 6 | – | inactive |
| Gk1 | DRSC08533 | 2 | – | inactive |
| Gk1 | DRSC08534 | 5 | – | inactive |
| CG10916 | DRSC06012 | 2 | – | inactive |
| CG3345 | DRSC00596 | 6 | – | inactive |
| mei-W68 | DRSC07649 | 5 | – | inactive |
| CG32278 + CG14963 | DRSC22203 | 9 | – | inactive |
| Pgm2b | DRSC05978 | 3 | – | inactive |
| Pgm2b | DRSC26452 | 10 | – | inactive |
| Dcps | DRSC12299 | 9 | – | inactive |
| Bdp1 | DRSC03192 | 9 | – | inactive |
| Bdp1 | DRSC28804 | 5 | – | inactive |
| Gss1 + Gss2 | DRSC20008 | 8 | – | inactive |
| Gss1 + Gss2 | DRSC21539 | 7 | – | inactive |
| CG42355 | DRSC07967 | 5 | – | inactive |
| Moca-cyp | DRSC15364 | 8 | – | inactive |
| Moca-cyp | DRSC25515 | 3 | – | inactive |
| Pyroxd1 | DRSC02098 | 2 | – | inactive |
